Laboratory results taken from paper PMC12661985, “USP25 deubiquitinates cytosolic METTL3 to impede glioma proliferation via an m6A-independent pathway” (iScience, 2025).
These are yes or no findings as the source states them, for the method shown. Binding seen in cells or lysates may run through a third protein. Some binding calls cover weakened binding; strength is not graded here.

Chains of the proteins cited; added tags and fusions are not shown.
UniProt Q86U44: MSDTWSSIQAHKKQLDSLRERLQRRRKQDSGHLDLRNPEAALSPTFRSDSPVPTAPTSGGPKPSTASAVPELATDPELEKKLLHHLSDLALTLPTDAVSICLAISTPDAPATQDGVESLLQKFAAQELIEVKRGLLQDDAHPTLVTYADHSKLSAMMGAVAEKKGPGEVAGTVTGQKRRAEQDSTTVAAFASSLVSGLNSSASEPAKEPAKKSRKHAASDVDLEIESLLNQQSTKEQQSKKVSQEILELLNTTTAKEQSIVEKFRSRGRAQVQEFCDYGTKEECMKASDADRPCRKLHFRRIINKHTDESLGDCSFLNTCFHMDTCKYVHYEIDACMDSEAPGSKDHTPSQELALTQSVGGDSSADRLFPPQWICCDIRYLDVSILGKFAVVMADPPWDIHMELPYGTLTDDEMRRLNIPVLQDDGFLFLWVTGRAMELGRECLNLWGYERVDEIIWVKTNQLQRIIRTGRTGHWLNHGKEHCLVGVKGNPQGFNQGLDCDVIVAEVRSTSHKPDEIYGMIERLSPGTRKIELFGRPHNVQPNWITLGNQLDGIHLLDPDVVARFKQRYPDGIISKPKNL
UniProt Q9UHP3: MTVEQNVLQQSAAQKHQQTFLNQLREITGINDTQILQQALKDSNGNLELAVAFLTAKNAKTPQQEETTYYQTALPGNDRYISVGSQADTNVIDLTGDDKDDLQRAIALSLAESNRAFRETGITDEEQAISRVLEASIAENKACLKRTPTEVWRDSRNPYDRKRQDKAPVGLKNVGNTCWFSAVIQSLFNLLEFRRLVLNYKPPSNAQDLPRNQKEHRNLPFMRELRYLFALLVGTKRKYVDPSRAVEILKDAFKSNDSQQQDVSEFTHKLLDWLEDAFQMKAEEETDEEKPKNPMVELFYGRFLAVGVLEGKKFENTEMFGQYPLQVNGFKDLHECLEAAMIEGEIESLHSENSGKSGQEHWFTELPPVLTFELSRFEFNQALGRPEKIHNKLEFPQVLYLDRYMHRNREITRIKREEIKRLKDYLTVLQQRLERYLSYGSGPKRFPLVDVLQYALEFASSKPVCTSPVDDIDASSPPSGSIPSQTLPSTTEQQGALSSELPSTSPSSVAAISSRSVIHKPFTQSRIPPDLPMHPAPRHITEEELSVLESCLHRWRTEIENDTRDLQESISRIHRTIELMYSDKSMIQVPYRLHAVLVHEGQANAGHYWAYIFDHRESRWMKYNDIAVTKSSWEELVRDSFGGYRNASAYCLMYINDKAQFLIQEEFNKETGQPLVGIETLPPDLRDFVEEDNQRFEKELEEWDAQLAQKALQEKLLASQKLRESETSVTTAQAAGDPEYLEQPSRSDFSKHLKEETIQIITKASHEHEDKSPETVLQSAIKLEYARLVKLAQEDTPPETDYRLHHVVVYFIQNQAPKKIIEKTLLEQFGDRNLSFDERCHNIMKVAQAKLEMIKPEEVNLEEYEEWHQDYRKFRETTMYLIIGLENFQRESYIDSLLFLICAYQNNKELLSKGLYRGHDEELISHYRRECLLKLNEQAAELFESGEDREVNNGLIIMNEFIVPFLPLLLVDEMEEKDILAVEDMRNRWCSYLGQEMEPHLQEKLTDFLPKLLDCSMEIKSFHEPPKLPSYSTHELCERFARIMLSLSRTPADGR

Assays:
[1] = molecular target: METTL3 (endogenous) (human (endogenous in U87-MG and U251)) (UniProt Q86U44); experiment: co-IP; endogenous proteins in U87-MG and U251 cells; reciprocal IP with anti-METTL3 or anti-USP25 antibody
Myc-METTL3 (human) = Myc-METTL3 (human) (UniProt Q86U44); experiment: co-IP; HEK-293T cells co-transfected with Flag-USP25 and Myc-METTL3; IP with anti-Flag or anti-Myc affinity gel

Substance	binding [1]	binding (Myc-METTL3 (human))
USP25 (endogenous) (from UniProt Q9UHP3 1-1055) (enzyme)	binds	–
Flag-USP25 (from UniProt Q9UHP3 1-1055) (enzyme)	–	binds
